T1: GST–Rho1^Q68L (constitutively active, GTP-locked mutant) (S. cerevisiae) (UniProt P06780)
T1 sequence: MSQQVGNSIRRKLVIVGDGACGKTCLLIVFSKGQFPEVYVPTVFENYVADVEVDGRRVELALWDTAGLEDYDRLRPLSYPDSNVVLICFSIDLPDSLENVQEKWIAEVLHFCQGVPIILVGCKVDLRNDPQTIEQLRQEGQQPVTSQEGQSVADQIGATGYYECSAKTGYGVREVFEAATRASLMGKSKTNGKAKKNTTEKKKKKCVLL

T2: GST–Ras2 (S. cerevisiae) (UniProt P01120)
T2 sequence: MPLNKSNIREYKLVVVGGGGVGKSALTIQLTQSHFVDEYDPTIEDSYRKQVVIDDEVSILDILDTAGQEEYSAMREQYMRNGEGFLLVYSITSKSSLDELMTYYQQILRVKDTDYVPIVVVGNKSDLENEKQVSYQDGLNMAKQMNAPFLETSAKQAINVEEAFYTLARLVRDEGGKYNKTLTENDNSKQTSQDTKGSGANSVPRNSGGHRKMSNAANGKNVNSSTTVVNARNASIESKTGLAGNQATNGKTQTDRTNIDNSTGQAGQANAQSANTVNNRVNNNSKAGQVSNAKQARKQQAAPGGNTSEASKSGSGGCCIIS

B1: Aly1, in vitro transcribed-translated and radiolabeled (protein, UniProt P36117 1-915)
chain: MLQFNTENDTVAPVFPMEQDINAAPDAVPLVQTTTLQVFVKLAEPIVFLKGFETNGLSEIAPSILRGSLIVRVLKPNKLKSISITFKGISRTEWPEGIPPKREEFSDVETVVNHTWPFYQADDGMNSFTLEHHSSNNSSNRPSMSDEDYLLEKSGASVYIPPTAEPPKDNSNLSLDAYERNSLSSDNLSNKPVSSDVSHDDSKLLAIQKTPLPSSSRRGSVPANFHGNSLSPHTFISDLFTKTFSNSGATPSPEQEDNYLTPSKDSKEVFIFRPGDYIYTFEQPISQSYPESIKANFGSVEYKLSIDIERFGAFKSTIHTQLPIKVVRLPSDGSVEETEAIAISKDWKDLLHYDVVIFSKEIVLNAFLPIDFHFAPLDKVTLHRIRIYLTESMEYTCNSNGNHEKARRLEPTKKFLLAEHNGPKLPHIPAGSNPLKAKNRGNILLDEKSGDLVNKDFQFEVFVPSKFTNSIRLHPDTNYDKIKAHHWIKICLRLSKKYGDNRKHFEISIDSPIHILNQLCSHANTLLPSYESHFQYCDEDGNFAPAADQQNYASHHDSNIFFPKEVLSSPVLSPNVQKMNIRIPSDLPVVRNRAESVKKSKSDNTSKKNDQSSNVFASKQLVANIYKPNQIPRELTSPQALPLSPITSPILNYQPLSNSPPPDFDFDLAKRGAADSHAIPVDPPSYFDVLKADGIELPYYDTSSSKIPELKLNKSRETLASIEEDSFNGWSQIDDLSDEDDNDGDIASGFNFKLSTSAPSENVNSHTPILQSLNMSLDGRKKNRASLHATSVLPSTIRQNNQHFNDINQMLGSSDEDAFPKSQSLNFNKKLPILKINDNVIQSNSNSNNRVDNPEDTVDSSVDITAFYDPRMSSDSKFDWEVSKNHVDPAAYSVNVASENRVLDDFKKAFREKRK
modifications: [35S]Met-labeled
B2: Aly2, in vitro transcribed-translated and radiolabeled (protein, UniProt P47029 1-1046)
chain: MPMDQSISSPLFPMEKDIDIPLDATPLAQSSSLQLFIHLAEPVVFLQGFDPQKTEYPSVVLRGCLVVRILKPTKLKSISLSFKGYSRTEWPEGIPPKRQEFVEIKDIVDHTWALYPPTEQKSKKKMDASAPNESNNAANNFLTKESGASLYRTLSDNETITSRKNSISGLSSLNLSPLGAPGNSSVNVKDRESRQRSRSSSVTSSNGPSRNLSPINLLKRATSPSVSHHNYKPTTTSIFSDLLNNTFTHNDAASHHGHHIPTSSNHLAMTSNNFTSGSGGEFFVFQPGDYIYAFEELIPQAYPESIKADFGFVEYFLFASIERPGAFKSNISARQVVNIVRTQAHNSVEESEPIIISRDWENQLYYDIVIASKDIILDAFLPITFKFAPLDKVTLHRIRIYVTETMEYYCREKKVHRMEPTKKFLLTEQKGPKLPNLPNDANLSKAKNMGNLLQDPKNGDLVNKEYEYQIFIPSRFNNHQQLHPDTSYENIKANHWIKICLRLSRVVDNKRKHYEISIDSPIHVLHRLCSHANTLLPSYDGHPASFPKETDSSISSILESSDDNINLYHNSNIFFPKEVLSSPVLSPNVQPLDILIPHLPSTSLTRNSRQFNRNSKSHPSDNTIFNSAKLKSNIYQPESLQRELASPQAIPLSPITSPMSNMEVPPPDFDFSSDFISDAASGTTTTEVSSSESSILPRDPPSYKDTVLHDNNQKRRPNSKHPTPPSLKASHPNKNSDKNSSETLNKKESMSKIEENKHKRETTPKKRENRDVKSLSTPQREESKDSTSTGNQSNEKNRKRVLSLSSSLHSSPNNSGFAHSALGNLSNESLRSLNRRESVQDNLPSTIRHDNPFFTDLNQVLIEDELKNHDKNELNRHSTNTSSTPASARSSFDYSGINISKDKLNMEPLLSKTETLTNKVNEDSFLRPNDSYVDLLEPSVDTTIDITAPYARNSSAWHPLQNDNDNNQFSPLLGSNENFLNAANAQNSAESDHNNDIFTQGSGLTESSKNSDSEERFISRLSSPEKVLINTLDNESGLQSINESTL
modifications: [35S]Met-labeled
B3: Ldb19, in vitro transcribed-translated and radiolabeled (protein, UniProt Q12502 1-818)
chain: MAFSRLTSTHQSNHNGYSNSNKKGQSLPLTLSIDVESPPCVLYGSAMESSGAVLSGLFTVTVVDPYSSAEDKSLKNTESNVSTTSKSLKRKSTFGSALSSRLSSLSASTSNISPSTSSTSISHSPTPANLRIMAGYTKITITSVTLSLVQKIHFHKPFVPNISSMQTCMNCKTKITNMKSWEIQSNTQDLSVGSHSYPFSYLIPGSVPCSSSLGATAETQVKYELIAVVTYIDPHRNSFSSGHSTPRKEGSSSKKRLLQLAMPIAVTRSIPRGPDKNSLRVFPPTELTAAAVLPNVVYPKSTFPLEMKLDGVSSGDRRWRMRKLSWRIEETTRVKAHACPVHKHELRQLEEQVKIKESEKSKKPRSHIKRYGELGPQIRVAVNSLENMPSQRLPGEPGREQAPNSSGPASTGNVGLDDENPVNEDEEDQPGSEFIHPSDDALRQELLMQQQRARQQQLQQELKNNSSLFTEEVRIISKGEMKSGWKTDFDNNGKIELVTEIDCMGLNSGVSNPVMHASTLQTPSTGNKKPSINVACDIQDPNLGLYVSHILAVEIVVAEETLQYANGQPIRKPNSKNKKETNNNTMNVHNPDQRLAELSPIFANRNTPKVRRMGPEDITPVNSNKSNHSTNKEKASNGASNSNIVSVPTGAARVLRMQFRLTVTERSGLGISWDEEVPPIYQDVELLSPPCYELSINNGIKNKLYSTMSTPVRSEDDFVGGSDEDIGNYESQGLEPGPNVQEVTITQNKLTIPPTAHHYQPASSSQRSLTTVQSPPLESVVSVQGSVPFRGHVLTPHSTRDIRIQNFSDFLDSNRITQ
modifications: [35S]Met-labeled
B4: Rog3, in vitro transcribed-translated and radiolabeled (protein, UniProt P43602 1-733)
chain: MGFSSGKSTKKKPLLFDIRLKNVDNDVILLKGPPNEAPSVLLSGCIVLSINEPMQIKSISLRLYGKIQIDVPLERPQDASSSSLSSSPPKIRKYNKVFYNYAWDNVNLKEYLSGLRGQSGLAGSSSSSNILGTRQRAQSTSSLKSLKGSSSPSSCTLDKGNYDFPFSAILPGSLPESVESLPNCFVTYSMESVIERSKNYSDLICRKNIRVLRTISPAAVELSETVCVDNSWPDKVDYSISVPNKAVAIGSATPINISIVPLSKGLKLGSIKVVLFENYQYCDPFPPVISENRQVTELNLEDPLNESSGEFNGNGCFVNNPFFQPDHSFQDKWEIDTILQIPNSLSNCVQDCDVRSNIKVRHKLKFFIILINPDGHKSELRASLPIQLFISPFVALSIKPLSSSNLYSLFSTTNQKDENSSQEEEEEYLFSRSASVTGLELLADMRSGGSVPTISDLMTPPNYEMHVYDRLYSGSFTRTAVETSGTCTPLGSECSTVEDQQQDLEDLRIRLTKIRNQRDNLGLPPSASSAAASRSLSPLLNVPAPEDGTERILPQSALGPNSGSVPGVHSNVSPVLLSRSPAPSVSAHEVLPVPSGLNYPETQNLNKVPSYGKAMKYDIIGEDLPPSYPCAIQNVQPRKPSRVHSRNSSTTLSSSIPTSFHSSSFMSSTASPISIINGSRSSSSGVSLNTLNELTSKTSNNPSSNSMKRSPTRRRATSLAGFMGGFLSKGNKR
modifications: [35S]Met-labeled

Results are given in words; binding and its absence hold for the method and conditions named. In cells and extracts the contact can be indirect. Some entries that bind do so weakly or less than the wild type. For part of these data: Sequences can lack the tags named with a protein.

The target of one experiment is T1, GST–Rho1^Q68L (constitutively active, GTP-locked mutant) (S. cerevisiae). Nature of the experiment: pull-down; ~5 µg GST or GST–GTPase on glutathione-agarose beads incubated with [35S]Met-labeled in vitro translated α-arrestins, 4°C, 2 h, 20 mM HEPES pH 7.4, 150 mM NaCl, 5 mM MgCl2, 10% glycerol, 0.1% Triton X-100; phosphorimager; GST–Rho1 also nucleotide-free or with 0.2 mM GTPγS or GDPβS; only the target purified.
Take B1: the binding result is reported as “binds”.

For B2, the binding result is on record as “binds”.

For B3, the binding entry is on record as “binds”.

The next experiment has as its target T2, GST–Ras2 (S. cerevisiae). The experiment is described as above.
In the case of B3, the binding result is on record as “binds”.

Turning to B4, the binding entry is reported as “binds”.

The next experiment concerns the target GST–Rho1 (S. cerevisiae) (UniProt P06780). Described as above.
Turning to B1, the binding entry was “binds”.

As for B2, the binding result is listed as “binds”.

As for B3, the binding entry is recorded as “binds”.

Regarding B4, the binding entry was “binds”.

The target in another experiment is GST–Rho1^G22A (nucleotide-free mutant) (S. cerevisiae) (UniProt P06780). Described as above.
As for B1, the binding result is listed as “binds”.

For the molecule B2, the binding result was “binds”.

For B3, the binding entry is listed as “binds”.

The values are drawn from paper PMC4712785.
